{"source": "PubChem BioAssay AID504467", "about": "(National Center for Advancing Translational Sciences (NCATS), 2011)", "note": "Hit rate of the full screen: of about 330,000 compounds, about 7,700 (2.3%) were called active. This list was built around the results that the source calls inconclusive (neither active nor inactive); the mix of calls is not that of the screen. The call rests on the fitted dose curve; in most records, active means well fitted inhibition curve with a large enough effect; inconclusive means small, poorly fitted or top-dose-only effect, or effect the other way; inactive means flat fitted curve, though single readings scatter. A potency beside an inconclusive call is a rough fit, not a confirmed value. On the % scale 0 is the no-effect control and ±100 the full control effect; potency means the concentration at half of the fitted maximal effect.", "data": [{"assay": "qHTS screen for small molecules that inhibit ELG1-dependent DNA repair in human embryonic kidney (HEK293T) cells expressing luciferase-tagged ELG1; further: nearly all actives have a fitted effect of over 55% in size", "conditions": "HEK293T ELG1-luciferase reporter, luminescence, 16 h, DNA damage induced by 5-fluorouridine; activity change, negative = inhibition: at 46.1 µM (top of the series)", "summary_of_the_method": "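Cells (2,000 per well) received 5-fluorouridine plus test compound or DMSO and were incubated 16 hr at 37 °C, 5% CO2. Luciferase activity was read by luminescence 30 min after ONE-Glo addition; signal suppression marked inhibition of damage-induced ELG1 function.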", "values": [{"smiles": "CC1CCCN(C(=O)C2(NC(=O)Nc3cccc(F)c3)CCCCC2)C1", "note": "(stereo unspecified)", "activity change, negative = inhibition": "inactive: -2.51%"}, {"smiles": "Cc1cc(N2CCN(C(=O)OC(C)(C)C)CC2)n2ncnc2n1", "Potency": "inconclusive: 9.2 µM [inhibitor, partial curve, poor fit]"}, {"smiles": "O=[N+]([O-])c1ccc(C(O)C23CN4CN(CN(C4)C2)C3)cc1", "note": "(stereo unspecified)", "activity change, negative = inhibition": "inactive: 10.6%"}, {"smiles": "O=C(NCCO)c1cccc(Nc2nc(-c3ccccc3)c3cc(Cl)ccc3n2)c1", "Potency": "inconclusive: 20.6 µM [inhibitor, single point]"}, {"smiles": "CCn1ccnc1CN1CCCC(C(=O)c2ccc3cc(OC)ccc3c2)C1", "note": "(stereo unspecified)", "Potency": "inconclusive: 16.4 µM [inhibitor, single point]"}, {"smiles": "C=CCn1c(SCC(=O)NCc2ccco2)nnc1-c1ccc2ccccc2n1", "Potency": "inconclusive: 29.1 µM [inhibitor, single point]"}, {"smiles": "O=C1SC(SC(=Nc2ccccc2)Nc2ccccc2)C(=O)N1c1ccccc1", "note": "(stereo unspecified)", "Potency": "inconclusive: 18.4 µM [activator, partial curve]"}, {"smiles": "CCOc1ncccc1C(=O)OCC(=O)Nc1cc(S(=O)(=O)N2CCOCC2)ccc1Cl", "activity change, negative = inhibition": "inactive: -20.2%"}, {"smiles": "O=C(CCCOc1ccc(Cl)cc1Cl)N1CCN(c2ccccn2)CC1", "activity change, negative = inhibition": "inactive: 2.79%"}, {"smiles": "O=C(N/N=C/c1ccco1)c1cc(-c2ccc(Cl)s2)[nH]n1", "activity change, negative = inhibition": "inactive: -1.52%"}, {"smiles": "Cc1noc(C)c1S(=O)(=O)N(Cc1ccccc1)C(C)C", "activity change, negative = inhibition": "inactive: -25%"}, {"smiles": "O=C(Nc1nc2c(Br)cc(Br)cc2c(=O)s1)C1CCC1", "activity change, negative = inhibition": "inactive: 15.6%"}, {"smiles": "O=C(NC(c1ccccc1)c1ccccc1)c1ccc(=O)[nH]n1", "Potency": "inconclusive: 10.3 µM [activator, partial curve, poor fit]"}, {"smiles": "COC(=O)c1sccc1NS(=O)(=O)c1ccc(OC)cc1", "Potency": "inconclusive: 23.1 µM [inhibitor, single point]"}, {"smiles": "Cc1onc(-c2ccccc2Cl)c1C(=O)OCC(=O)N1CCCc2ccccc21", "Potency": "inconclusive: 25.9 µM [inhibitor, single point]"}, {"smiles": "COc1ccc(OCCOC(=O)c2cccs2)cc1", "Potency": "inconclusive: 12.6 µM [activator, partial curve, poor fit]"}, {"smiles": "CSc1ccccc1NC(=O)c1cnc2sc(C)cn2c1=O", "Potency": "inconclusive: 2.51 µM [activator, full curve, poor fit]"}, {"smiles": "O=C(O)CCc1nn2c3ccccc3n(CC(=O)c3cccs3)c2nc1=O", "activity change, negative = inhibition": "inactive: 4.59%"}, {"smiles": "Clc1ccc(Cn2cc(/C=N/n3cnnc3)c3ccccc32)cc1", "Potency": "inconclusive: 5.8 µM [inhibitor, single point]"}, {"smiles": "Cc1cc(NC(=O)C(C)Oc2ccc(Cl)cc2Cl)no1", "note": "(stereo unspecified)", "Potency": "inconclusive: 20.6 µM [activator, partial curve]"}, {"smiles": "C=C[C@]1(C)C=C2CC[C@H]3[C@@](C)(CCC[C@@]3(C)C(=O)O)[C@@H]2CC1", "Potency": "inconclusive: 14.6 µM [activator, partial curve]"}, {"smiles": "CCCCn1c(N)c(N(CCC(C)C)C(=O)c2ccccc2-n2cnnn2)c(=O)[nH]c1=O", "activity change, negative = inhibition": "inactive: 7.94%"}, {"smiles": "NC(=O)C1(N2CCCCC2)CCN(C2CC(=O)N(Cc3cccs3)C2=O)CC1", "note": "(stereo unspecified)", "activity change, negative = inhibition": "inactive: 8.74%"}, {"smiles": "Cc1cc(C)n(CCc2nc(-c3ccco3)cs2)n1", "Potency": "inconclusive: 23.1 µM [activator, partial curve, poor fit]"}, {"smiles": "Cc1cc(C)c(OCC(=O)OCC(=O)NNC(=O)c2ccccc2F)c(C)c1", "activity change, negative = inhibition": "inactive: 11%"}, {"smiles": "CC(C)OC(=O)Cc1nc2sc(-c3ccccc3)cc2c(=O)[nH]1", "Potency": "inconclusive: 16.4 µM [activator, partial curve]"}, {"smiles": "Cc1nn(CC(=O)Nc2ccc(Cl)c(S(=O)(=O)N(C)C)c2)c(C)c1[N+](=O)[O-]", "Potency": "inconclusive: 29.1 µM [inhibitor, single point]"}, {"smiles": "CCc1nnc(NC(=O)CSc2nnc(-c3cc4ccccc4cc3O)n2CC)s1", "Potency": "inconclusive: 14.1 µM [inhibitor, partial curve, poor fit]"}, {"smiles": "CNC(=S)N1N=C(c2cccs2)CC1c1ccc(OC)cc1", "note": "(stereo unspecified)", "activity change, negative = inhibition": "inactive: 17.7%"}, {"smiles": "Cc1ccccc1-n1c(SCC(=O)Nc2ccccc2)nc2nc3c(cc2c1=O)CCCC3", "Potency": "active: 23.1 µM"}, {"smiles": "O=C(CCNS(=O)(=O)c1ccc(Br)cc1)NC1CCCCC1", "activity change, negative = inhibition": "inactive: -12.8%"}, {"smiles": "O=C(CSc1ccc(-c2ccccn2)nn1)Nc1ccc(F)c(F)c1", "Potency": "inconclusive: 20.6 µM [activator, single point]"}, {"smiles": "O=S(=O)([O-])C(c1ccccc1)[n+]1ccccc1", "note": "(stereo unspecified)", "Potency": "inconclusive: 28.2 µM [activator, single point]"}, {"smiles": "Cc1ccc(N(CC(=O)N2CC(=O)Nc3ccccc32)S(=O)(=O)c2ccc3c(c2)OCCO3)cc1", "Potency": "inconclusive: 9.2 µM [inhibitor, partial curve, poor fit]"}, {"smiles": "CSc1cccc(NC(=O)COc2ccccc2)c1", "Potency": "inconclusive: 14.6 µM [activator, partial curve, poor fit]"}, {"smiles": "Cn1c(=O)c2c(ncn2CC(=O)N2CCCCCC2)n(C)c1=O", "activity change, negative = inhibition": "inactive: 7.9%"}, {"smiles": "CCOc1ccc(S(=O)(=O)N(CC)CC(=O)NCc2ccccn2)cc1C", "activity change, negative = inhibition": "inactive: 0.765%"}, {"smiles": "COc1ccc(NC(C)=O)cc1NC(=O)CN1CCN(C2c3ccccc3-c3ccccc32)CC1", "Potency": "active: 0.92 µM"}, {"smiles": "COc1ccc(-c2csc(NC(=O)CN3C(=O)C4CCCCC4C3=O)n2)cc1OC", "note": "(stereo unspecified)", "activity change, negative = inhibition": "inactive: -26.7%"}, {"smiles": "COc1ccc(NC(=O)COc2ccccc2C)cc1S(=O)(=O)N1CCCCC1", "Potency": "inconclusive: 13 µM [inhibitor, partial curve, poor fit]"}, {"smiles": "Cc1ccc(O)c(NC(=S)NC(=O)/C=C/c2ccco2)c1", "Potency": "inconclusive: 25.9 µM [activator, partial curve, poor fit]"}, {"smiles": "CC1(C)Cc2c(sc3[nH]c(=O)n(CC(=O)NCC4CCCO4)c(=O)c23)CO1", "note": "(stereo unspecified)", "activity change, negative = inhibition": "inactive: 11.9%"}, {"smiles": "O=C(c1cnsn1)N1CCC(CO)(Cc2ccc(Cl)cc2)CC1", "activity change, negative = inhibition": "inactive: -7.25%"}, {"smiles": "O=C(Nc1cccnc1)c1cc(-c2cccs2)on1", "activity change, negative = inhibition": "inactive: -4.53%"}, {"smiles": "COc1ccc(-n2c(CN3CCN(c4ccccn4)CC3)nc3ccc([N+](=O)[O-])cc3c2=O)c(OC)c1", "Potency": "inconclusive: 14.6 µM [inhibitor, partial curve, poor fit]"}, {"smiles": "COc1ccc(/C=C/C(=O)Nc2cccc(N3CCOCC3)c2)cc1OC", "Potency": "inconclusive: 16.4 µM [inhibitor, single point]"}]}]}
